# Melanoma cell counts after drug treatment

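Human melanoma cell lines in 1,536-well plates were treated with two drugs together for 72 h, then fixed, stained and imaged. Each value is the count of nuclei relative to DMSO-treated wells, in %, so that 100 equals the control. Every drug was used at one fixed concentration, the lower of two screened (a fifth of the higher). These are primary screening values without error estimates.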
An unselected part of the screen is shown.

Compounds and concentrations:
vismodegib, 1000 nM: CS(=O)(=O)c1ccc(C(=O)Nc2ccc(Cl)c(-c3ccccn3)c2)c(Cl)c1
nutlin-3, 100 nM: COc1ccc(C2=N[C@@H](c3ccc(Cl)cc3)[C@@H](c3ccc(Cl)cc3)N2C(=O)N2CCNC(=O)C2)c(OC(C)C)c1
CX-4945, 400 nM: O=C(O)c1ccc2c(c1)nc(Nc1cccc(Cl)c1)c1ccncc12
FK866, 10 nM: O=C(/C=C/c1cccnc1)NCCCCC1CCN(C(=O)c2ccccc2)CC1
OSI-906, 400 nM: C[C@]1(O)C[C@@H](c2nc(-c3ccc4ccc(-c5ccccc5)nc4c3)c3c(N)nccn32)C1
vincristine, 0.1 nM: CC[C@]1(O)C[C@H]2CN(CCc3c([nH]c4ccccc34)[C@@](C(=O)OC)(c3cc4c(cc3OC)N(C=O)[C@H]3[C@@](O)(C(=O)OC)[C@H](OC(C)=O)[C@]5(CC)C=CCN6CC[C@]43[C@@H]65)C2)C1
dasatinib, 4 nM: Cc1nc(Nc2ncc(C(=O)Nc3c(C)cccc3Cl)s2)cc(N2CCN(CCO)CC2)n1
perifosine, 400 nM: CCCCCCCCCCCCCCCCCCOP(=O)([O-])OC1CC[N+](C)(C)CC1

| Combination | C32 | A2058 | A101D | IPC-298 | A375 |
|---|---|---|---|---|---|
| perifosine and nutlin-3 | 107 | 95.2 | 91.9 | 97.3 | 78.3 |
| vismodegib and FK866 | 116 | 116 | 91.1 | 37.2 | 95.2 |
| dasatinib and FK866 | 93.5 | 78.1 | 104 | 23.1 | 99.1 |
| CX-4945 and nutlin-3 | 91.7 | 96.6 | 103 | 99.5 | 91.0 |
| vincristine and dasatinib | 76.8 | 17.6 | 47.6 | 99.3 | 60.6 |
| perifosine and dasatinib | 97.0 | 90.8 | 88.9 | 103 | 47.1 |
| vincristine and perifosine | 87.9 | 43.0 | 64.2 | 97.9 | 87.7 |
| dasatinib and nutlin-3 | 104 | 85.8 | 72.7 | 92.9 | 83.4 |
| CX-4945 and vismodegib | 113 | 93.5 | 106 | 94.1 | 97.5 |
| FK866 and vincristine | 88.4 | 33.6 | 70.9 | 47.3 | 93.9 |
| vincristine and vismodegib | 78.6 | 42.7 | 65.5 | 95.6 | 66.4 |
| OSI-906 and dasatinib | 72.7 | 74.5 | 89.0 | 87.8 | 61.1 |
| nutlin-3 and vincristine | 70.0 | 20.2 | 58.0 | 98.7 | 65.2 |
| OSI-906 and vincristine | 105 | 85.8 | 86.6 | 110 | 72.1 |
| CX-4945 and FK866 | 101 | 104 | 109 | 36.9 | 85.6 |
| FK866 and OSI-906 | 96.4 | 99.1 | 106 | 42.2 | 68.7 |
| perifosine and CX-4945 | 110 | 90.4 | 115 | 94.9 | 90.3 |
| FK866 and perifosine | 87.0 | 108 | 110 | 41.5 | 113 |
| nutlin-3 and FK866 | 107 | 113 | 98.5 | 36.5 | 110 |
| vismodegib and perifosine | 93.3 | 94.3 | 95.8 | 102 | 88.9 |
| OSI-906 and CX-4945 | 108 | 91.5 | 92.5 | 93.5 | 60.9 |
| vismodegib and dasatinib | 88.5 | 84.9 | 90.2 | 101 | 77.5 |
| vincristine and CX-4945 | 85.6 | 72.5 | 79.4 | 86.3 | 87.5 |
| nutlin-3 and OSI-906 | 104 | 106 | 79.3 | 90.9 | 68.7 |
| nutlin-3 and vismodegib | 93.3 | 103 | 77.7 | 91.8 | 87.6 |
| CX-4945 and dasatinib | 74.1 | 86.9 | 98.1 | 87.0 | 88.0 |
| vismodegib and OSI-906 | 107 | 80.9 | 100 | 90.9 | 74.2 |
| OSI-906 and perifosine | 87.1 | 87.4 | 80.4 | 85.3 | 66.8 |

Repeated from the top, 4 entries:

{"combination": "perifosine and nutlin-3", "C32": 107, "A2058": 95.2, "A101D": 91.9, "IPC-298": 97.3, "A375": 78.3}
{"combination": "vismodegib and FK866", "C32": 116, "A2058": 116, "A101D": 91.1, "IPC-298": 37.2, "A375": 95.2}
{"combination": "dasatinib and FK866", "C32": 93.5, "A2058": 78.1, "A101D": 104, "IPC-298": 23.1, "A375": 99.1}
{"combination": "CX-4945 and nutlin-3", "C32": 91.7, "A2058": 96.6, "A101D": 103, "IPC-298": 99.5, "A375": 91.0}

From a melanoma drug combination screen (doi:10.1371/journal.pone.0140310); values rounded.